# Percent effect of library compounds

Protein sequences, listed by entry. Tags and fused reporters are not part of them. Residues count along the entry.
UniProt Q8IDJ8, 1-583: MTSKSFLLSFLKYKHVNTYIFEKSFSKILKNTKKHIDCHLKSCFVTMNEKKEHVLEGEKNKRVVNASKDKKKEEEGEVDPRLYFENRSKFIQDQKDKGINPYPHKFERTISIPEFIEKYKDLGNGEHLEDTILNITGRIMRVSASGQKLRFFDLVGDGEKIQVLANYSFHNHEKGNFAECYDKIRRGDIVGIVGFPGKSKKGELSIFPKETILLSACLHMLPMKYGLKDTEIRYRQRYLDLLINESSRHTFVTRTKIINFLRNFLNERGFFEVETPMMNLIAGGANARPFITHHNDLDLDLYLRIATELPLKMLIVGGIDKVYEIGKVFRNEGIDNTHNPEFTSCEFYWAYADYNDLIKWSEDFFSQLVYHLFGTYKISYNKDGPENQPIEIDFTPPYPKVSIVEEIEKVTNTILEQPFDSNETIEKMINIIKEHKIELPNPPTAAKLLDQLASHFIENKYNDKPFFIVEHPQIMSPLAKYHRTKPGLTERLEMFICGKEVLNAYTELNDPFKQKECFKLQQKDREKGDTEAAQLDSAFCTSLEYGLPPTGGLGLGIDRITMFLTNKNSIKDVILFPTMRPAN

Source: ChEMBL document CHEMBL3988442, “University of Dundee, Small-Polar-MMV Screening Library” (2021).

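Enzyme assay of the cytosolic lysyl-tRNA synthetase in 384-well plates, read by luminescence. Target: Lysine-tRNA ligase, Plasmodium falciparum 3D7 (UniProt Q8IDJ8). Tested at 30 µM. Higher reads as stronger inhibition, judged from the few compounds that gave an IC50. About 69,000 compounds were tested under these conditions; 0.071% (about 49) showed 50% or more at least once.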

Each number is a percent effect as filed. How 0% and 100% were set is not recorded. Most values in the screen are low, and negative values occur. The compounds are a random part of those screened.

* Cc1cnccc1CCNC(=O)Nc1cnc(N(C)C)nc1 | -3.127%
* CCC(C(=O)NCC1=CCCN(C)C1)c1ccccc1 (stereo not drawn) | 6.366%
* O=C(NCc1cc[nH]n1)N1CCN(c2ccccc2Cl)CC1 | 1.173%
* COc1cc(CNc2cnn(C(C)(C)C)c(=O)c2Cl)ccn1 | 10.13%
* COCCN(Cc1ccc(C)o1)C(=O)Nc1nnc2ccccn12 | 4.107%
* CCN1CCN(C(=O)c2[nH]c3ccccc3c2Cl)[C@H]2CS(=O)(=O)C[C@H]21 | 5.797%
* Cc1c(C2CCCN(C(=O)c3cccnc3)C2)n2c(nc1=O)CCC2 (stereo not drawn) | 6.577%
* Cc1cc(C(O)CCNC(=O)COc2ccccc2C)c(C)o1 (stereo not drawn) | -0.8714%
* O=C1CC2(CCN(c3nncs3)C2)CN1c1cccc(F)c1 (stereo not drawn) | 2.732%
* O=C(NCCNC(=O)N1CCC(c2ccccc2)C1)C1CC1 (stereo not drawn) | 0.7169%
* O=C(CC(F)(F)F)N1C[C@H]2CC[C@@H]1CN(Cc1ccccc1)C2 | 5.861%
* CN(C)C(=O)C1(CCCc2ccccn2)CCN1Cc1nccn1C (stereo not drawn) | -0.06307%
* NC(=O)c1ccc(NC(=O)Cn2cc(-c3ccccc3)ncc2=O)cc1 | 3.149%
* Cc1nc2c(c(N(C)CC3Cc4ccccc4CN3C)n1)CCNCC2 (stereo not drawn) | -5.121%
* CC(C)(C)NC(=O)CNc1ncccn1 | 5.785%
* COc1ccc(CNC2CCN(c3ccccc3)C2)cc1O (stereo not drawn) | 7.565%
* O=C(c1ccno1)N1CC2(CCC(C(=O)N3CCCC3)O2)C1 (stereo not drawn) | -1.905%
* CN1CCN(C(=O)Cc2ccccn2)Cc2cccnc21 | 5.067%
* CC(=O)NCC1CCN(C(=O)NCCc2ccc(Cl)s2)CC1 | -0.5045%
* O=C(Nc1cccnc1)C1CCN(c2cc(-n3ccnc3)ncn2)CC1 | 4.946%
* CC(C)N1CCN(C(=O)Cc2csc(-c3ccco3)n2)CC1 | -0.2758%
* COC(=O)CC1c2cccnc2C(=O)N1Cc1ccccc1 (stereo not drawn) | 3.553%
* c1ccc(COC[C@@H]2CCC[C@@]23CNCCO3)nc1 | 0.1125%
* CCCC(O)CN1CC(C)(C)CN(C(=O)c2ccc(Cl)cc2)CC1=O (stereo not drawn) | 2.74%
* O=C(CCc1ccccc1)N1CCCCC1Cn1cccn1 (stereo not drawn) | -2.398%
* O=C(NCc1nnc2ccccn12)N1CCOC(c2ccsc2)C1 (stereo not drawn) | 3.684%
* CC(C)c1nnc2n1CCN(Cc1cc(Cl)c3c(c1)OCO3)C2 | 3.278%
* CCCN1C[C@H]2CC[C@@H]1CN(Cc1ccc(Cn3cccn3)cc1)C2 | 3.255%
* CCn1c(C(=O)N2CCN(C(=O)COC)CC2)cc2ccccc21 | -1.055%
* c1nc(C2CCCCO2)ncc1CN1CCOCC1 (stereo not drawn) | 1.526%
* O=C(NCc1nncn1C1CC1)C1(c2ccc(F)cc2)CCOCC1 | 6.438%
* CCOc1cc(-c2cc(=O)n3c(n2)CCCCC3)ccc1O | 0.02264%
* CS(=O)(=O)NC[C@]12COC[C@H]1CN(C(=O)C1CCCCC1)C2 | 0.5239%
* CC(C)(C)c1n[nH]c(C2CN(Cc3nnc(C4CC4)o3)CCO2)n1 (stereo not drawn) | 1.342%
* CCC(C)NC(=O)c1cncc(Br)c1 (stereo not drawn) | 5.315%
* CCN1CCC(CC(=O)NCC(O)c2ccc3ccccc3c2)CC1 (stereo not drawn) | 0.4644%
* c1ccc(CNc2ncc(CN3CC[C@H]4CC[C@@H](C3)N4)cn2)cc1 | 7.882%
* O=C(CN1CCOc2ccc(Cl)cc21)NCc1ncc[nH]1 | 6.618%
* Cc1nn(C)c(N(C)C)c1CNC1CCOc2c(F)cccc21 (stereo not drawn) | -3.602%
* Cc1nc2c(c(NC3CC3)n1)CCN(C(=O)C(C)(C)O)CC2 | -0.7801%
* COCCNC(=O)[C@H]1CO[C@H]2CCN(Cc3cccs3)C[C@H]2C1 | 0.03213%
* c1cc(CN2CCc3cncnc3C2)c2c(c1)OCCO2 | 2.322%
* Cc1cc(C(=O)Nc2ccn(CCCN3CCCC3)n2)no1 | -0.8008%
* Cc1occc1C(=O)N1CCCC(c2nncn2C)C1 (stereo not drawn) | -0.09483%
* FC(F)CN1CCOC(Cn2cccn2)C1 (stereo not drawn) | -1.313%
* Cc1cc(CC(C)Nc2nc(-c3cccnc3)nc3c2CNC3)[nH]n1 (stereo not drawn) | 5.845%
* Cc1nn(C)c(C)c1CCC(=O)Nc1cn(C)c(=O)n(C)c1=O | 1.465%
* Cc1nn(C)cc1CN1CCCC1c1cccc(Nc2nccs2)n1 (stereo not drawn) | -1.302%
* COCC(=O)N1CC[C@H]2N(C)CC[C@@]2(C(=O)Nc2ccccc2)CC1 | 1.441%
* O=C(NC1CCc2cc(Cl)ccc21)C1CCN(C(=O)C2CC2)CC1 (stereo not drawn) | 7.309%
* CN1CCN2C(=O)N(c3ccccc3)C[C@H]2C1 | 1.162%
* O=C(c1cccc2ccnn12)N1CCCC1Cn1cccn1 (stereo not drawn) | 2.993%

The first 3 entries again:

{"smiles": "Cc1cnccc1CCNC(=O)Nc1cnc(N(C)C)nc1", "Percent Effect": -3.127}
{"smiles": "CCC(C(=O)NCC1=CCCN(C)C1)c1ccccc1", "stereo": "stereo not drawn", "Percent Effect": 6.366}
{"smiles": "O=C(NCc1cc[nH]n1)N1CCN(c2ccccc2Cl)CC1", "Percent Effect": 1.173}